Usually AC50 stands for the midpoint of the concentration-response curve, whichever way the signal moves.

The list shows a part of the results. These are further read-outs of the screen, such as a control signal, another cell line or another target. No call is given for them. Most of these compounds were active or inconclusive in the main read-out, so they are no random draw. Potencies come from curve fits of mixed quality, noted in brackets.

The assay can be described thus: qHTS Assay to Find Inhibitors of Chronic Active B-Cell Receptor Signaling. Conditions: ABC-DLBCL IkBa-CBG/CBR reporter, luminescence ratio (green luciferase fused to IkBa over red control in TMD8 lymphoma cells), 4 h. The method, boiled down: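 Concentration-response series (up to 46 uM) were applied to TMD8 dual-reporter cells for 4 h at 37C with doxycycline. Green/red ratio, after filter-overlap correction, defined %Activity; red signal alone was normalised to basal cells and zero luminescence.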
On the technique in general: Quantitative high-throughput screening tests each substance at several concentrations.

[1] abbreviates: measured here: CBR red luminescence, cell number.
[2] abbreviates: measured here: IkBa-CBG green luminescence.

As for `CC(=O)c1c(C)[nH]c(C(=O)N2CCN(S(=O)(=O)c3ccc(C)cc3C)CC2)c1C`, the AC50 under setting [1] was 20.6 µM [rising, single point]. Still for that read-out and setting: in the case of `CCN1C=C(Cc2ccc(F)cc2)C2=C(C1)C(c1ccc(F)cc1)C(C#N)=C(N)O2` (stereo unspecified) it was 29.1 µM [falling, single point]; in that of `N#Cc1cc2c([nH]c1=S)CCCCCC2`, 3.55 µM [falling, partial curve, poor fit]. Turning to `Cc1c(/C=N/NC(=O)c2ccc(O)cc2)c2ccccn2c1C(=O)c1ccc(F)cc1`, the AC50 under setting [1] is 14.6 µM [falling, partial curve].

On to `COc1cccc(C(=O)N2CCN(C(=O)c3ccc(-c4ccccc4)cc3)CC2)c1OC`, for which the AC50 under setting [1] is 11.2 µM [falling, single point].

As for `COc1cccc(CN2CCN(C(=O)c3oc4c(F)cccc4c3C)CC2=O)c1`, the AC50 under setting [1] was 2.24 µM [rising, partial curve, poor fit].

Regarding `O=C(CCS(=O)(=O)c1ccc(Cl)cc1)N1CCN(S(=O)(=O)c2cccs2)CC1`, the AC50 under setting [1] was 1.46 µM [rising, full curve, poor fit].

As for `COc1ccc(/C=C/c2nc3ccccc3c(=O)n2-c2cccc(C(F)(F)F)c2)cc1`, under setting [1], the AC50 is 35.5 µM [rising, single point]. For `Cc1cc(Br)ccc1OCC(=O)NC1CCCC1`, the AC50 under setting [1] was 0.501 µM [rising, full curve]. Still for that read-out and setting: for `O=C(N/N=C/c1ccc[nH]1)c1ccc2c(c1)OCO2` the value was 6.31 µM [falling, partial curve]. With `CCOc1ccc(-n2nnnc2SCC(=O)NC2CCCC2)cc1`, the AC50 is, setting by setting: under setting [1], 31.6 µM [rising, single point]; under setting [2], 25.1 µM [falling, partial curve, poor fit]. As to `O=c1c2oc3ccccc3c2[nH]c(=S)n1-c1ccc(F)cc1`, the AC50 under setting [1] is 10 µM [falling, partial curve]. Regarding `COc1ccc(-c2c(C#Cc3ccccc3)c3ccccc3n2C)cc1`, the AC50 under setting [1] was 1.26 µM [rising, full curve, poor fit]. Consider `O=C(Cn1ncc2c(=O)oc3ccccc3c21)NCC1COc2ccccc2O1` (stereo unspecified), for which, under setting [1], the AC50 was 5.17 µM [falling, full curve, poor fit]. On the same count and under the same terms, in the case of `CC(=O)Nc1ccc(NC(=O)CSc2nnc(-c3cccs3)n2N)cc1` it was 3.66 µM [rising, partial curve, poor fit]; in that of `CCCN1C(=O)C(Cc2nc3ccccc3c(=O)n2C)c2ccccc21` (stereo unspecified), 35.5 µM [falling, single point]; in that of `COc1ccccc1N1CC(O)=C(c2nc3ccccc3c(=O)[nH]2)C1=N`, 6.51 µM [falling, partial curve, poor fit].

For the compound `CCc1nnc(N/N=C/c2ccccc2F)n1N`, the AC50 under setting [1] was 35.5 µM [falling, single point]. Still for that read-out and setting: in the case of `CCOc1ccc2cc(C(=O)c3ccccc3)c(=O)oc2c1` it was 10.3 µM [rising, partial curve, poor fit]. Still for that read-out and setting: in the case of `COc1ccc(S(=O)(=O)c2ccc(O)cc2)cc1` it was 5.17 µM [rising, single point]; in that of `O=C(COc1ccccc1)NCC1COc2ccccc2O1` (stereo unspecified), 11.2 µM [rising, partial curve]; in that of `CCOC(=O)C1=C(N)Oc2c(c(=O)[nH]c3ccccc23)C1c1ccccc1` (stereo unspecified), 10 µM [falling, partial curve]. As to `CCOc1ccccc1C1C2CCCCC2(O)CCN1C(=O)c1cccs1` (stereo unspecified), the AC50 was 18.4 µM [falling, single point] under setting [1] and 16.4 µM [rising, partial curve, poor fit] under setting [2].

`C#CCOCCOCCOCCNc1nc(N2CCN(C(=O)CCCCCCCCCCNC(=O)[C@@H](CCSC)n3cc(CCO)nn3)CC2)nc(N2CCN(C(=O)CCCCCCCCCCNC(=O)[C@H](CCSC)n3cc(CCO)nn3)CC2)n1`: the AC50 under setting [1] was 6.51 µM [falling, single point] and the AC50 under setting [2] was 3.66 µM [rising, partial curve, poor fit]. On to `COc1ccc(-c2noc(C3CCCN(S(=O)(=O)c4ccc(C)c(Cl)c4)C3)n2)cc1OC` (stereo unspecified), for which the AC50 under setting [1] was 35.5 µM [rising, single point].

As for `Cc1ccc(C(=O)N/N=C/c2ccc(-c3cccc(C(F)(F)F)c3)o2)cn1`, the AC50 under setting [2] was 11.2 µM [falling, single point]. Regarding `CCN1C(=O)c2ccccc2Sc2ccc(C(=O)NCCC(C)C)cc21`, the AC50 under setting [1] is 35.5 µM [falling, partial curve, poor fit]. Same read-out and setting: for `C=C(C)CNC(=S)NN=C1c2ccccc2-c2ccccc21` the value was 3.16 µM [rising, full curve]. Same read-out and setting: in the case of `FC(F)(F)c1ccc(Oc2ccc3cc(Br)ccc3c2)nc1` it was 6.51 µM [rising, partial curve, poor fit]; in that of `COc1ccc2c(c1)OC/C(=C/c1cccs1)C2=O`, 32.6 µM [falling, single point]. The same measure, in the same setting: in the case of `Cc1ccc(NC(=O)Nc2ccc3c(c2)CCC3)cc1` it was 0.282 µM [rising, full curve, poor fit]; in that of `Cc1cc(C(=O)N/N=C/c2cn[nH]c2-c2ccccc2)cs1`, 18.4 µM [falling, single point]. With `Cc1cc(C(=O)NNC(=O)/C=C/c2ccc(F)cc2)c(C)o1`, the concentration at half-maximal activity (AC50) under setting [1] was 1 µM [falling, full curve]. Same read-out and setting: in the case of `COC(=O)c1sccc1NC(=O)Nc1cccc(C)c1` it was 3.55 µM [falling, full curve]. Turning to `CCOC(=O)CNC(=O)N1CCc2ccc(NC(=O)c3ccccc3OC)cc2C1`, the AC50 under setting [2] was 12.6 µM [falling, partial curve, poor fit].

For the compound `COC(=O)C1=C(C)NC2=C(C(=O)C(C(=O)OC)C(c3ccc(OC)cc3)C2)C1c1ccccn1` (stereo unspecified), the AC50 under setting [1] is 5.62 µM [falling, single point]. Regarding `CCCn1c(NCc2ccco2)nc2c1c(=O)n(C)c(=O)n2C`, the AC50 is, setting by setting: under setting [1], 0.651 µM [falling, full curve, poor fit]; under setting [2], 3.26 µM [rising, partial curve, poor fit].

As for `CCOC(=O)c1c(NC(=O)COc2ncnc3ccccc23)sc(C)c1CC`, the AC50 under setting [1] was 29.1 µM [falling, single point].

On to `CC(C)c1cc(C(N)=O)c(NC(=O)c2cccc(COc3ccc(Br)cc3)c2)s1`, for which the AC50 under setting [1] was 1.03 µM [rising, full curve]. Still for that read-out and setting: for `O=C(N/N=C/c1cccs1)c1ccc2ncccc2c1` the value was 11.2 µM [falling, single point].

On to `CCN=c1scc(-c2ccccc2)n1/N=C/c1ccccn1`, for which the concentration at half-maximal activity (AC50) under setting [1] was 5.8 µM [rising, partial curve] and the AC50 under setting [2] is 32.6 µM [falling, partial curve, poor fit].

Consider `CCC(=O)NCCc1nc2cc(NC(=O)c3cccc([N+](=O)[O-])c3)ccc2n1C`, for which the AC50 under setting [1] was 6.31 µM [falling, partial curve, poor fit]. The same measure, in the same setting: for `Cc1ccc(CNC(=O)C2CCC(CNS(=O)(=O)c3cccs3)CC2)cc1` (stereo unspecified) the value was 5.62 µM [rising, partial curve, poor fit]. Regarding `CCS(=O)(=O)N1Cc2ccccc2CC1C(=O)Nc1nc2c(C)cccc2s1` (stereo unspecified), under setting [1], the AC50 was 29.1 µM [falling, single point]. On the same count and under the same terms, for `CC(C)(C)OC(=O)N1CC=C2C(C#N)=C(N)C(C#N)(C#N)C(c3cccs3)C2C1` (stereo unspecified) the value was 29.1 µM [falling, single point]; for `Cc1[nH]c2ccccc2c1C(=O)CSc1nc2ccccc2c(=O)n1-c1ccccc1F`, 3.55 µM [rising, full curve, poor fit]. Still for that read-out and setting: in the case of `CCc1c(O)nc(N2CCN(Cc3ccccc3)CC2)[nH]c1=O` it was 23.1 µM [rising, single point]. On the same count and under the same terms, in the case of `Cc1cn(-c2cc(NC(=O)c3ccc(C)c(NC(=O)c4cccc(-c5cn[nH]c(=O)c5)c4)c3)cc(C(F)(F)F)c2)cn1` it was 15.8 µM [falling, single point].

Take `Cc1onc(-c2ccccc2)c1C(=O)OCC(=O)NCc1ccc(F)cc1`: the AC50 under setting [1] was 11.2 µM [rising, single point]. The same measure, in the same setting: for `COc1ccc(OC)c(NC(=O)c2nnn(Cc3ccc(Br)cc3F)c2N)c1` the value was 5.17 µM [rising, full curve, poor fit]. Same read-out and setting: for `COc1ccccc1NCCC(=O)OCC(=O)Nc1cccc(S(=O)(=O)N(C)C)c1` the value was 0.146 µM [falling, full curve, poor fit]; for `COc1ccc(/C=C/C(=O)c2ccc(NS(=O)(=O)c3ccc(C)cc3)cc2)cc1O`, 18.4 µM [falling, partial curve]. On the same count and under the same terms, for `COc1cc(OC)cc(C(=O)NNC(=O)c2nn(C)c(=O)c3ccccc23)c1` the value was 11.6 µM [rising, partial curve]; for `Clc1cccc(-c2noc3ncnc(Nc4ccc5c(c4)OCO5)c23)c1`, 6.31 µM [rising, single point]. `CN1CCc2c(OCC(=O)N3N=C(c4cccs4)CC3c3ccc(F)cc3)cccc2C1=O` (stereo unspecified): the AC50 runs as follows: under setting [1], 29.1 µM [falling, single point]; under setting [2], 2.31 µM [falling, full curve].

On to `CC(=O)N(Cc1ccccc1)c1ccccc1C(=O)O`, for which the AC50 under setting [1] was 0.1 µM [rising, full curve, poor fit]. On the same count and under the same terms, for `COc1cccc(N2CCN(C(=O)CCNS(=O)(=O)c3ccc4c(c3)c(=O)n(C)c(=O)n4C)CC2)c1` the value was 35.5 µM [falling, partial curve, poor fit]. On the same count and under the same terms, in the case of `COc1cc(NC(=O)CC(C)n2ccnc2)cc(OC)c1` (stereo unspecified) it was 3.98 µM [rising, partial curve, poor fit]. Turning to `CCC(C)Sc1ccc(-c2nc3ccccn3c2NCc2ccccc2)cc1OC` (stereo unspecified), the AC50 runs as follows: under setting [1], 29.1 µM [falling, single point]; under setting [2], 32.6 µM [rising, partial curve, poor fit].

For the origin of these results see PubChem BioAssay AID493014 (National Center for Advancing Translational Sciences (NCATS), 2011).
